{"source": "patent US9687477B2", "about": "(priority 2011, dated 2017)", "tested_on": "influenza virus", "assay": "JAK inhibitor / STAT1 inhibitor assay: viral NP in infected HEK- and SPL-cells", "assay_type": "cell-based, Influenza A/WSN/33 virus (H1N1)", "conditions": "HEK- or SPL-cells pre-treated 1 μM", "source_text": "FIG. 4 (Panels A-E) set forth data illustrating the analyses for the activation of JAK/STAT following influenza virus infection of SPL-cells. HEK-cells or SPL-cells were uninfected or infected with influenza virus at 1 MOI. (A) At 1 dpi, cell lysates were used for Western blot analysis to detect STAT1, pSTAT1, STAT2, pSTAT2 and actin. (B) At 0, 12 or 18 hpi, whole proteins were extracted and then used for Western blot analysis to detect STAT1, pSTAT1 and actin. (C) HEK- or SPL-cells were pre-treated with fludarabine (1 μM) blocking STAT1 expression, and at 2 dpi, the expression of viral NP and actin was analyzed. (D) HEK-cells (filled bars) and SPL-cells (open bars) were uninfected (CTR) or infected with influenza virus at 1 MOI (left panel) or 10 MOI (right panel). Reverse transcription followed by quantitative real-time PCR was performed to detect the relative mRNA level of IFN-β. […] After 2 days, the level of viral NP and actin was assessed by Western blot analysis.\nSpecific antibodies against actin, influenza viral protein NP, NS1, NS2, M1, M2, Bax, Bcl-2, PARP, STAT1, pSTAT1, STAT2, pSTAT2, ERK, pERK, p38, p-p38, Akt, pAkt, JNK, pJNK, RanBP3, pRanBP3, p-p90RSK, and FLAG for SPL and SK1 were purchased from Cell Signaling Technology, Abcam, Upstate, or Santa Cruz Biotechnology. […] Membrane-bound antibodies were detected by enhanced chemiluminescence (Pierce). […]", "note": "For at least one compound, name, drawing or mass did not settle the structure.", "data": [{"smiles": "Nc1nc(F)nc2c1ncn2[C@@H]1O[C@H](CO)[C@@H](O)[C@@H]1O", "note": "[fludarabine]", "values": [{"measurement": "viral NP expression after blocking STAT1 expression", "setting": "1 MOI, 2 dpi", "value": "preferentially up-regulated in SPL-cells"}, {"measurement": "Bax expression after blocking STAT1 expression", "setting": "data not shown", "value": "preferentially up-regulated in SPL-cells"}]}]}
